Laboratory results taken from the supplement of paper PMC6078165.

Tested on: MDAMB468
Assay: relative JC-1 red fluorescence (viability) vs pre-drug, coculture with fibroblast (fraction); higher = more viable cancer cells
Experimental: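 JC-1 labelled TNBC cells cocultured 1:1 (1,500 cells each) with CellTrace Violet stained primary or stromal fibroblasts in 384-well plates in FluoroBrite medium, treated with one of 42 anticancer drugs at 0.1, 1, 10 or 100 uM. JC-1 red fluorescence (mitochondrial integrity in cancer cells only) was read by plate reader every 8 h for 72 h. Values are normalised to each well's pre-drug value. The stock of one drug was tenfold lower, so its dose labels may be too high.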

O=C1c2c(O)ccc(O)c2C(=O)c2c(NCCNCCO)ccc(NCCNCCO)c21 [Mitoxantrone]
relative JC-1 red fluorescence
Details	8 h	16 h	24 h	32 h	40 h	48 h	56 h	64 h	72 h
0.1 µM, coculture fibroblast: C12385	0.846 ± 0.0016	0.816 ± 0.0095	0.7504 ± 0.0033	0.689 ± 0.01	0.643 ± 0.02	0.616 ± 0.016	0.58 ± 0.013	0.548 ± 0.0092	0.527 ± 0.0082
0.1 µM, coculture fibroblast: H6013	0.8128 ± 0.0067	0.73036 ± 0.00056	0.709 ± 0.017	0.711 ± 0.04	0.696 ± 0.075	0.711 ± 0.088	0.694 ± 0.12	0.684 ± 0.13	0.635 ± 0.12
0.1 µM, coculture fibroblast: H6019	0.847 ± 0.03	0.771 ± 0.045	0.746 ± 0.062	0.702 ± 0.057	0.679 ± 0.071	0.657 ± 0.071	0.618 ± 0.081	0.589 ± 0.077	0.57 ± 0.075
0.1 µM, coculture fibroblast: H6076	0.8567 ± 0.0031	0.839 ± 0.036	0.747 ± 0.0089	0.77 ± 0.0087	0.72 ± 0.0088	0.722 ± 0.021	0.7 ± 0.016	0.691 ± 0.004	0.742 ± 0.013
0.1 µM, coculture fibroblast: H6231	0.738 ± 0.0086	0.858 ± 0.03	0.798 ± 0.028	0.767 ± 0.049	0.749 ± 0.043	0.724 ± 0.058	0.684 ± 0.084	0.667 ± 0.085	0.66 ± 0.091
0.1 µM, coculture fibroblast: HADF	0.816 ± 0.01	0.775 ± 0.029	0.694 ± 0.036	0.682 ± 0.035	0.626 ± 0.03	0.611 ± 0.029	0.581 ± 0.029	0.57 ± 0.032	0.531 ± 0.037
0.1 µM, coculture fibroblast: HCFa	0.7804 ± 0.0023	0.7056 ± 0.0033	0.66 ± 0.0072	0.631 ± 0.013	0.568 ± 0.021	0.555 ± 0.023	0.519 ± 0.017	0.491 ± 0.011	0.444 ± 0.0071
0.1 µM, coculture fibroblast: HCPF	0.7706 ± 0.0068	0.811 ± 0.012	0.7058 ± 0.0014	0.698 ± 0.02	0.655 ± 0.014	0.638 ± 0.025	0.608 ± 0.026	0.603 ± 0.023	0.597 ± 0.037
0.1 µM, coculture fibroblast: HHSteC	0.8257 ± 0.001	0.7462 ± 0.0013	0.6831 ± 0.0067	0.66 ± 0.012	0.62 ± 0.015	0.628 ± 0.017	0.576 ± 0.013	0.556 ± 0.016	0.502 ± 0.027
0.1 µM, coculture fibroblast: HMF	0.757 ± 0.017	0.7721 ± 0.0044	0.697 ± 0.011	0.704 ± 0.015	0.656 ± 0.013	0.65 ± 0.012	0.6233 ± 0.0017	0.62179 ± 0.00013	0.628 ± 0.0066
0.1 µM, coculture fibroblast: HPFa	0.901 ± 0.047	0.887 ± 0.051	0.821 ± 0.035	0.779 ± 0.012	0.7406 ± 0.0036	0.732 ± 0.015	0.683 ± 0.032	0.666 ± 0.028	0.584 ± 0.028
0.1 µM, coculture fibroblast: HUF	0.856 ± 0.014	0.7649 ± 0.00089	0.711 ± 0.023	0.645 ± 0.043	0.602 ± 0.038	0.574 ± 0.05	0.535 ± 0.061	0.508 ± 0.069	0.484 ± 0.069
0.1 µM, coculture fibroblast: Hs5	0.811 ± 0.13	0.905 ± 0.081	0.819 ± 0.033	0.735 ± 0.055	0.857 ± 0.19	0.833 ± 0.2	0.799 ± 0.2	0.786 ± 0.23	0.778 ± 0.17
0.1 µM, coculture fibroblast: Hs27A	0.7789 ± 0.0054	0.7071 ± 0.005	0.672 ± 0.0075	0.684 ± 0.011	0.64 ± 0.021	0.637 ± 0.028	0.626 ± 0.035	0.619 ± 0.037	0.591 ± 0.053
0.1 µM, coculture fibroblast: Hs343T	0.815 ± 0.015	0.832 ± 0.043	0.741 ± 0.011	0.745 ± 0.018	0.69 ± 0.011	0.692 ± 0.007	0.641 ± 0.0097	0.6404 ± 0.005	0.645 ± 0.0089
0.1 µM, coculture fibroblast: WS1	0.8617 ± 0.001	0.793 ± 0.029	0.736 ± 0.027	0.667 ± 0.031	0.627 ± 0.036	0.588 ± 0.038	0.563 ± 0.041	0.547 ± 0.058	0.528 ± 0.056
1 µM, coculture fibroblast: C12385	0.616 ± 0.029	0.57 ± 0.017	0.638 ± 0.0089	0.6562 ± 0.0047	0.633 ± 0.015	–	–	–	–
1 µM, coculture fibroblast: H6013	0.417 ± 0.008	0.435 ± 0.0098	0.47 ± 0.019	0.487 ± 0.015	0.5 ± 0.0054	–	–	–	–
1 µM, coculture fibroblast: H6019	0.616 ± 0.013	0.5531 ± 0.0038	0.547 ± 0.0076	0.517 ± 0.027	0.493 ± 0.043	–	–	–	–
1 µM, coculture fibroblast: H6076	0.522 ± 0.014	0.473 ± 0.034	0.505 ± 0.082	0.553 ± 0.1	0.477 ± 0.1	–	–	–	–
1 µM, coculture fibroblast: H6231	0.442 ± 0.028	0.411 ± 0.017	0.479 ± 0.017	0.571 ± 0.016	0.49 ± 0.014	–	–	–	–
1 µM, coculture fibroblast: HADF	0.404 ± 0.0075	0.428 ± 0.0049	0.4641 ± 0.0017	0.5011 ± 0.0038	0.5294 ± 0.0027	–	–	–	–
1 µM, coculture fibroblast: HCFa	0.473 ± 0.0076	0.485 ± 0.034	0.515 ± 0.042	0.555 ± 0.073	0.589 ± 0.093	–	–	–	–
1 µM, coculture fibroblast: HCPF	0.469 ± 0.031	0.471 ± 0.026	0.529 ± 0.028	0.588 ± 0.022	0.505 ± 0.0085	–	–	–	–
1 µM, coculture fibroblast: HHSteC	0.457 ± 0.016	0.493 ± 0.036	0.551 ± 0.053	0.58 ± 0.059	–	–	–	–	–
1 µM, coculture fibroblast: HMF	0.49 ± 0.056	0.517 ± 0.071	0.573 ± 0.07	0.603 ± 0.058	–	–	–	–	–
1 µM, coculture fibroblast: HPFa	0.491 ± 0.034	0.476 ± 0.012	0.546 ± 0.011	0.563 ± 0.022	–	–	–	–	–
1 µM, coculture fibroblast: HUF	0.667 ± 0.015	0.618 ± 0.013	0.635 ± 0.029	0.641 ± 0.027	–	–	–	–	–
1 µM, coculture fibroblast: Hs5	0.583 ± 0.035	0.618 ± 0.034	0.793 ± 0.071	0.836 ± 0.083	–	–	–	–	–
1 µM, coculture fibroblast: Hs27A	0.448 ± 0.039	0.463 ± 0.0067	0.469 ± 0.03	0.491 ± 0.045	–	–	–	–	–
1 µM, coculture fibroblast: Hs343T	0.474 ± 0.035	0.479 ± 0.054	0.538 ± 0.057	0.584 ± 0.061	–	–	–	–	–
1 µM, coculture fibroblast: WS1	0.548 ± 0.018	0.493 ± 0.0076	0.504 ± 0.013	0.498 ± 0.03	–	–	–	–	–

± gives the standard deviation of the averaged measurements. The reference is the same well before dosing, and untreated signal decays as well.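 Fibroblast labels name human fibroblasts: mostly primary ones from tissues such as uterus (C12385, HUF), lung (H6013), bone (Hs27A), adrenal (HADF) and skin (WS1), plus mammary HMF and breast cancer-associated Hs343T. The cancer cells are basal-like or mesenchymal-like triple-negative breast cancer lines. The paper calls a changed response a hit when it shifts by more than 3x the replicate standard deviation. The tissue of the other fibroblasts is not given here.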
